# Out of some 320,000 compounds screened, about 22,000 (6.9%) were called active. This list was built around the results that the source calls inconclusive (neither active nor inactive); the mix of calls is not that of the screen. The call rests on the fitted dose curve; in most records, active means well fitted inhibition curve with a large enough effect; inconclusive means small, poorly fitted or top-dose-only effect, or another doubt; inactive means no such curve, though single readings can be large or run the other way. Potencies of inconclusive entries are doubtful fits and often do not repeat.
# Assay: Primary qHTS for delayed death inhibitors of the malarial parasite plastid, 96 hour incubation
# Details: P. falciparum luciferase reporter growth; series mostly up to 28.7 µM; activity change, negative = inhibition: at the top concentration
# Summary of the method: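 Cell-based qHTS: luciferase-tagged P. falciparum in erythrocytes (2% hematocrit, 0.05% parasitemia final) incubated with compounds for 96 hours, 37 C, 5% CO2; luciferase detection reagent then added and luminescence measured.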
# On the % scale 0 is the no-effect control and ±100 the full control effect; potency means the concentration at half of the fitted maximal effect.
Structure (SMILES),Potency,"activity change, negative = inhibition"
COc1ccc2cc(CN(Cc3cccs3)Cc3nnnn3Cc3ccccc3)c(=O)[nH]c2c1,"inconclusive: 18.5 µM [inhibitor, single point]",
CC(=O)c1sc(NC(=O)C2(F)C(F)(F)C(F)(F)C(F)(F)C(F)(F)C2(F)F)nc1C,,inactive: -19.5%
COc1ccc(/C(N)=N/OC(=O)CSc2ccc(C)cc2)cc1OC,"inconclusive: 0.0928 µM [inhibitor, full curve, poor fit]",
O=C(NCCc1cccc(Cl)c1)c1cccs1,"inconclusive: 2.94 µM [inhibitor, partial curve, poor fit]",
COC(=O)c1ccc(/C=C/c2ccc3cccc(OC)c3n2)cc1,"inconclusive: 11.7 µM [inhibitor, single point]",
COc1cccc(C(=O)Nc2cnc(NC(=O)c3ccco3)cc2C)c1,active: 5.22 µM,
CCCc1cc(=O)[nH]c(Nc2ccc3c(c2)OCCO3)n1,"inconclusive: 2.33 µM [inhibitor, full curve]",
O=C(CN(C(=O)C1CSC(=O)C1)c1ccccc1F)NCc1ccc2c(c1)OCO2 (centres undefined),"inconclusive: 2.33 µM [inhibitor, partial curve, poor fit]",
CCCN1C(=O)CN(C2CCCCCC2)C(=O)C1c1ccc(C)cc1 (centres undefined),"inconclusive: 0.131 µM [inhibitor, full curve, poor fit]",
CC(C)CCn1c(SCC(=O)NC2CC2)nc2cc(Cl)ccc2c1=O,,inactive: -6.04%
CCN(CC(=O)NCc1ccc(F)cc1)C(=O)c1ccc(C)o1,,inactive: 0.341%
Cc1nc(NC2=NC(C(=O)Nc3ccc(Cl)cc3)CC(=O)N2)nc2ccccc12 (centres undefined),"inconclusive: 3.7 µM [inhibitor, partial curve, poor fit]",
Oc1ccc2ccccc2c1-c1sc(Nc2ccccc2)n[n+]1-c1ccc(F)cc1,"inconclusive: 3.29 µM [inhibitor, full curve]",
O=C(N1CCN=C1SCc1cccnc1)C12CC3CC(CC(C3)C1)C2,,inactive: -29.3%
O=C(c1ccccn1)N1CCN(c2cccc(C(F)(F)F)c2)CC1,,inactive: -6.15%
OCC[C@@H]1C[C@@H](O)[C@H](O)[C@@]2(CCc3ccccc3CO2)O1,"inconclusive: 0.0329 µM [inhibitor, full curve]",
CCN(CC)C(C)C(=O)Nc1c2c(cc3c1CCC3)CCC2 (centres undefined),"inconclusive: 18.5 µM [inhibitor, single point]",
CCCN(CC(=O)Nc1ccccc1C)C(=O)C1CCN(S(=O)(=O)c2cccc(C(F)(F)F)c2)CC1,"inconclusive: 18.5 µM [inhibitor, single point]",
Cc1ccc(C(C(=O)NC2CCCC2)N(C(=O)c2csnn2)c2ccccc2)o1 (centres undefined),"inconclusive: 11.7 µM [inhibitor, partial curve, poor fit]",

# Some of the entries so far, as tab-separated lines:
Structure (SMILES)	Potency	activity change, negative = inhibition
CC(=O)c1sc(NC(=O)C2(F)C(F)(F)C(F)(F)C(F)(F)C(F)(F)C2(F)F)nc1C		inactive: -19.5%
CCCN1C(=O)CN(C2CCCCCC2)C(=O)C1c1ccc(C)cc1 (centres undefined)	inconclusive: 0.131 µM [inhibitor, full curve, poor fit]	

# — PubChem BioAssay AID504834 (National Center for Advancing Translational Sciences (NCATS), 2011)
